Laboratory results taken from doi:10.1101/2022.07.12.499660.
These are yes or no findings as the source states them, for the method shown. Binding seen in cells or lysates may run through a third protein. Some entries that bind do so weakly or less than the wild type. For some assays here: Sequences can lack the tags named with a protein.

T1: Spn-E-mKate2 (Spindle-E with mKate2, endogenous knock-in, spn-E^mKate2.KI) (Drosophila (endogenous in ovaries)) (UniProt Q9VF26)
T1 sequence: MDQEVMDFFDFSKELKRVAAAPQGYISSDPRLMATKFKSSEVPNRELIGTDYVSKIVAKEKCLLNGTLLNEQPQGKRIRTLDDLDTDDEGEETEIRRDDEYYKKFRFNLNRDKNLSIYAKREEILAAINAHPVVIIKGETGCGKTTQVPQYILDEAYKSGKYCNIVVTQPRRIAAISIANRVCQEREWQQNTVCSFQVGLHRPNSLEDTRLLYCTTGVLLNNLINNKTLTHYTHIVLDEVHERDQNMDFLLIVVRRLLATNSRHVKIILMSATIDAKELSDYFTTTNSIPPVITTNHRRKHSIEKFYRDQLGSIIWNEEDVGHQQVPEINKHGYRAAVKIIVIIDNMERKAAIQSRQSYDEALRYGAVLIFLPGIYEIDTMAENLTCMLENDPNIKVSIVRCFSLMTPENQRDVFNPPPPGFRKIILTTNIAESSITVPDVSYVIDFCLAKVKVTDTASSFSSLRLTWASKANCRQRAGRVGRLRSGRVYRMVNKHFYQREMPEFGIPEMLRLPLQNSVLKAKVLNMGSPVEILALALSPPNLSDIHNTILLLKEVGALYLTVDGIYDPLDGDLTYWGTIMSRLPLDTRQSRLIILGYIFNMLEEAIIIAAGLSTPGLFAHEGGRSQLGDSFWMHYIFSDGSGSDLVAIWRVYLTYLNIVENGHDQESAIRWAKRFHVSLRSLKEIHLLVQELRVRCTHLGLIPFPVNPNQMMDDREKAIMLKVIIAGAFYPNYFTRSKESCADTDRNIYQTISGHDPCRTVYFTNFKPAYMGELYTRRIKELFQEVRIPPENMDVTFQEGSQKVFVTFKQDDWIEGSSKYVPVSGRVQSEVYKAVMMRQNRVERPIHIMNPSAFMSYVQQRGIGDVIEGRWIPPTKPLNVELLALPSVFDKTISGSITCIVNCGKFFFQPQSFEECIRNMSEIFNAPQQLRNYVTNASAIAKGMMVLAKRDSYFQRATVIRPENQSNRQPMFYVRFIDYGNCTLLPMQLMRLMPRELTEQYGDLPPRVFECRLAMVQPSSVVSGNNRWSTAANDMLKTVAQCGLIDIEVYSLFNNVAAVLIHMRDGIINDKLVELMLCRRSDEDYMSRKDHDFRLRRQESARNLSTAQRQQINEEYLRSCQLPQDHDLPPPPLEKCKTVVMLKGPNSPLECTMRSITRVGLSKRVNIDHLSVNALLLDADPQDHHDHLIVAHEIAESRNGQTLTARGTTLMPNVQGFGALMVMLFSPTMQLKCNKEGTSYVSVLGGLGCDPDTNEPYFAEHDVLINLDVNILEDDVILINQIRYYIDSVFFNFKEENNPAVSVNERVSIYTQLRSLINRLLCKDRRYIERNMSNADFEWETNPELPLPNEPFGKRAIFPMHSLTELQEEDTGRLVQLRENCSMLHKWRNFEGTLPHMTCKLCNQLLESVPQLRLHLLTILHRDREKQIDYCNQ

T2: GFP-Vas (Vasa with EGFP, endogenous knock-in, vas^EGFP.KI) (Drosophila (endogenous in ovaries)) (UniProt P09052)
T2 sequence: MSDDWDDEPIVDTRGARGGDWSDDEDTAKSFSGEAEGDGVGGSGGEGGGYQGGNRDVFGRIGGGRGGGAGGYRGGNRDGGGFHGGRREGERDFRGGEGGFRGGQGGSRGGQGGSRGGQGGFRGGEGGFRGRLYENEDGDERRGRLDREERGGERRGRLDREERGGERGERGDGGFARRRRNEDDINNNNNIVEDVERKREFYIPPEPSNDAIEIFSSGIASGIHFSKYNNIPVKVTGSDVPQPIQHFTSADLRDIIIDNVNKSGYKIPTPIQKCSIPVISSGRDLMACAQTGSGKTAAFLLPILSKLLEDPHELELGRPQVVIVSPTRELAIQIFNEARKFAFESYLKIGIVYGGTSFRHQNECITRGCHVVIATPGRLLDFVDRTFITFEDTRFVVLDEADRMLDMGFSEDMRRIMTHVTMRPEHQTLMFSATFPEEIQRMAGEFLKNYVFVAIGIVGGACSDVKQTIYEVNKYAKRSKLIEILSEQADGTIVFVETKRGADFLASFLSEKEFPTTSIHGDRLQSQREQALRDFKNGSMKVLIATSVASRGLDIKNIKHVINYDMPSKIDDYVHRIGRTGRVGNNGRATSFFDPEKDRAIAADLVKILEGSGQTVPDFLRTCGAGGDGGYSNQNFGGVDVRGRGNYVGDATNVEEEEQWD

T3: GFP-Vas (Vasa with EGFP, endogenous knock-in, vas^EGFP.KI) (Drosophila (endogenous in ovaries)), P09052
T3 chain: T2 sequence

B1: Ago3, endogenous (protein, UniProt Q7PLK0 1-867)
chain: MSGRGNLLSLFNKNAGNMGKSISSKDHEIDSGLDFNNSESSGERLLSSHNIETDLITTLQHVNISVGRGRARLIDTLKTDDHTSNQFITSESKENITKKTKGPESEAIASENGLFFPDLIYGSKGSSVNIYCNYLKLTTDESKGVFNYEVRFFPPIDSVHLRIKYLNDHKDKLGGTKTFDGNTLYLPILLPNKMTVFISKAEDVELQIRILYKKKEEMRNCTQLYNILFDRVMKVLNYVKFDRKQFDPSRPKIIPLAKLEVWPGYVTAVDEYKGGLMLCCDVSHRILCQKTVLEMLVDLYQQNVEHYQESARKMLVGNIVLTRYNNRTYKINDICFDQNPTCQFEIKTGCTSYVEYYKQYHNINIKDVNQPLIYSIKKSRGIPAERENLQFCLIPELCYLTGLRDEVRSDNKLMREIATFTRVSPNQRQMALNKFYENVSNTPAAQEILNSWGLSLTNNSNKISGRQMDIEQIYFSKISVSAGRSAEFSKHAVTNEMLKVVHLSKWIIIHLRNYRQAATSLLDNMKQACESLGMNISNPTMISLDHDRIDAYIQALRRNITMNTQMVVCICHNRRDDRYAAIKKICCSEIPIPSQVINAKTLQNDLKIRSVVQKIVLQMNCKLGGSLWTVKIPFKNVMICGIDSYHDPSNRGNSVAAFVASINSSYSQWYSKAVVQTKREEIVNGLSASFEIALKMYRKRNGKLPTNIIIYRDGIGDGQLYTCLNYEIPQFEMVCGNRIKISYIVVQKRINTRIFSGSGIHLENPLPGTVVDQHITKSNMYDFFLVSQLVRQGTVTPTHYVVLRDDCNYGPDIIQKLSYKLCFLYYNWAGTVRIPACCMYAHKLAYLIGQSIQRDVAEALSEKLFYL
B2: Piwi, endogenous (protein, UniProt Q9VKM1 1-843)
chain: MADDQGRGRRRPLNEDDSSTSRGSGDGPRVKVFRGSSSGDPRADPRIEASRERRALEEAPRREGGPTERKPWGDQYDYLNTRPAELVSKKGTDGVPVMLQTNFFRLKTKPEWRIVHYHVEFEPSIENPRVRMGVLSNHANLLGSGYLFDGLQLFTTRKFEQEITVLSGKSKLDIEYKISIKFVGFISCAEPRFLQVLNLILRRSMKGLNLELVGRNLFDPRAKIEIREFKMELWPGYETSIRQHEKDILLGTEITHKVMRTETIYDIMRRCSHNPARHQDEVRVNVLDLIVLTDYNNRTYRINDVDFGQTPKSTFSCKGRDISFVEYYLTKYNIRIRDHNQPLLISKNRDKALKTNASELVVLIPELCRVTGLNAEMRSNFQLMRAMSSYTRMNPKQRTDRLRAFNHRLQNTPESVKVLRDWNMELDKNVTEVQGRIIGQQNIVFHNGKVPAGENADWQRHFRDQRMLTTPSDGLDRWAVIAPQRNSHELRTLLDSLYRAASGMGLRIRSPQEFIIYDDRTGTYVRAMDDCVRSDPKLILCLVPNDNAERYSSIKKRGYVDRAVPTQVVTLKTTKNRSLMSIATKIAIQLNCKLGYTPWMIELPLSGLMTIGFDIAKSTRDRKRAYGALIASMDLQQNSTYFSTVTECSAFDVLANTLWPMIAKALRQYQHEHRKLPSRIVFYRDGVSSGSLKQLFEFEVKDIIEKLKTEYARVQLSPPQLAYIVVTRSMNTRFFLNGQNPPPGTIVDDVITLPERYDFYLVSQQVRQGTVSPTSYNVLYSSMGLSPEKMQKLTYKMCHLYYNWSGTTRVPAVCQYAKKLATLVGTNLHSIPQNALEKKFYYL
B3: Ago3, endogenous, Q7PLK0 1-867 (protein)
chain: B1 chain
B4: Aub, endogenous, O76922 1-866 (protein)
chain: MNLPPNPVIARGRGRGRKPNNVEANRGFAPSLGQKSDPSHSEGNQASGGNGGGGDAQVGPSIEKSSLSAVQMHKSEGDPRGSVRGRRLITDLVYSRPPGMTSKKGVVGTHITVQANYFKVLKRPNWTIYQYRVDFTPDVEATRLRRSFLYEHKGILGGYIFDGTNMFCINQFKAVQDSPYVLELVTKSRAGENIEIKIKAVGSVQSTDAEQFQVLNLILRRAMEGLDLKLVSRYYYDPQAKINLENFRMQLWPGYQTSIRQHENDILLCSEICHKVMRTETLYNILSDAIRDSDDYQSTFKRAVMGMVILTDYNNKTYRIDDVDFQSTPLCKFKTNDGEISYVDYYKKRYNIIIRDLKQPLVMSRPTDKNIRGGNDQAIMIIPELARATGMTDAMRADFRTLRAMSEHTRLNPDRRIERLRMFNKRLKSCKQSVETLKSWNIELDSALVEIPARVLPPEKILFGNQKIFVCDARADWTNEFRTCSMFKNVHINRWYVITPSRNLRETQEFVQMCIRTASSMKMNICNPIYEEIPDDRNGTYSQAIDNAAANDPQIVMVVMRSPNEEKYSCIKKRTCVDRPVPSQVVTLKVIAPRQQKPTGLMSIATKVVIQMNAKLMGAPWQVVIPLHGLMTVGFDVCHSPKNKNKSYGAFVATMDQKESFRYFSTVNEHIKGQELSEQMSVNMACALRSYQEQHRSLPERILFFRDGVGDGQLYQVVNSEVNTLKDRLDEIYKSAGKQEGCRMTFIIVSKRINSRYFTGHRNPVPGTVVDDVITLPERYDFFLVSQAVRIGTVSPTSYNVISDNMGLNADKLQMLSYKMTHMYYNYSGTIRVPAVCHYAHKLAFLVAESINRAPSAGLQNQLYFL

How the values were obtained:
Test in all cases: co-IP
[1] = biological target: T1, Spn-E-mKate2 (Spindle-E with mKate2, endogenous knock-in, spn-E^mKate2.KI) (Drosophila (endogenous in ovaries))
[2] = biological target: T2, GFP-Vas (Vasa with EGFP, endogenous knock-in, vas^EGFP.KI) (Drosophila (endogenous in ovaries))
[3] = biological target: T3, GFP-Vas (Vasa with EGFP, endogenous …); settings: remark: other sources report otherwise

| Binder | binding [1] | binding [2] | binding [3] |
| --- | --- | --- | --- |
| B1 | binds | – | – |
| B2 | binds | binds | – |
| B3 | – | – | binds |
| B4 | – | – | binds |
